Results reported in US20230279108A1.
Results are given in words; binding and its absence hold for the method and conditions named. Some results given as binding are weak or reduced against the parent protein; the word gives no strength.

By UniProt entry, the sequences of proteins in these tests, tags left out. Where a name states a change or a piece, a line headed by the entry shows the natural chain unless it says otherwise.
UniProt P78324: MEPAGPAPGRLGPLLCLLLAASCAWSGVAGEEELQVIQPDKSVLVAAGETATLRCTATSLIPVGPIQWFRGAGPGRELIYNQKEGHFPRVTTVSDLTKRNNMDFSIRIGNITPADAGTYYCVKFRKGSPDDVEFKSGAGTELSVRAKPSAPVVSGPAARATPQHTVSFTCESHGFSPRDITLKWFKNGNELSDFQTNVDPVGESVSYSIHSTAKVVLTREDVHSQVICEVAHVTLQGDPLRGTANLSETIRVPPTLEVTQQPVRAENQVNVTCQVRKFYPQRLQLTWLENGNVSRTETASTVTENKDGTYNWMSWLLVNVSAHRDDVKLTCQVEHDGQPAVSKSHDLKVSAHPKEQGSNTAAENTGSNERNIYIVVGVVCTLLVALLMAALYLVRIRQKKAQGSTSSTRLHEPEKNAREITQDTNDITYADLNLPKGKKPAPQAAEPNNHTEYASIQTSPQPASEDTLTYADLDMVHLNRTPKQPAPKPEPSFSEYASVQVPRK

Key:
[1] = molecular target: human SIRPα expressed on cells (THP-1, macrophages, dendritic cells, ES-2) (human) (UniProt P78324); test: flow cytometry on ES-2 cells (SIRPα/β), 10 µg/ml
[2] = molecular target: human SIRPα expressed on cells (THP-1, macrophages, dendritic cells, ES-2) (human) (UniProt P78324); test: flow cytometry on human macrophages and dendritic cells
[3] = molecular target: human SIRPα expressed on cells (THP-1, macrophages, dendritic cells, ES-2) (human) (UniProt P78324); test: flow cytometry on THP-1 cells

binding [1] | binding [2] | binding [3] | Binder
binds | binds | – | SIRP9 (antibody, V domains shown) VH: EVQLQESGAELVRPGASVKLSCKALGYTFTDYEIHWVKETPVYGLEWIGDIHPGSGGTANNQKFKGKATLTADKSSNTAYMELSSLTSEDSAVYYCTRAVSGYYAMDYWGQGTSVTVSS VL: DIQMTQSSSSFSGSLGDRLTINCKASEDIYDRVAWYQQKPGNAPRLLISGTASLETGVLSRFSGSGSGKDYTLSINGLQAEDVATYYCQQYWTTPWTFGGGTKLEIK
– | binds | binds | SIRP3 (antibody, mouse IgG1, kappa, V domains shown) VH: EVQLQQSGPEVVKPGASVKMSCKASGYTFTSYVMHWVKQKPGQGLEWIGYINPYNDGPKYNEKFKGKATLTSDKSSSTAYMELSSLTSEDSAVYFCARWDYFNSASGFAFWGQGTLVTVSA VL: EIVLTQSPTTMAASPGEKITIICSASSIIGSDFLHWYQQRPGFSPKFLIYRTSILASGVPTRFTGSGSGTSYSLTIGTMEAEDVATYYCQQGSGLPLTFGSGTKLEMKR
– | – | binds | SIRP2 (antibody, mouse IgG1, kappa, V domains shown) VH: EVKLVESGGGLVQPGGSLKLSCAASGFSFSGCTMSWIRQTPERRLEWVAYISNGGDITYYPDTVKGRFTISRDNAKNSLYLQMSSLKSEDTAMYYCARLDGYYYAMDFWGQGTSVTVSS VL: DILLTQSPAILSVSPGERVSFSCRASQSIGTSIHWYQQRTNGSPRLLIKYGSESISGIPSRFSGSGSGTDFTLSINSVESEDIADYYCQQSNTWPLTFGDGTKLELKR
binds | binds | – | SIRP4 (antibody, V domains shown) VH: EVQLQQSGPDLVKPGASVKISCKASGYSFTDYFLNWVKQSHGKSLEWIGRINPYNGDSFINQNFRDKATLTVDKSSTTAHMDLLSLTSEDSAIYYCGRGGYDGYFIAYFDYWGQGSLVTVSA VL: DIKLTQSQSSMYSSLGQRVTITCKASQDINSHLSWFQEKPGKSPKTLIYRANRLADGVPSRFSGSGSGQDYFLTISSLEYEDVGIYYCLQYDEFPYTFGGGTKLEIK
– | binds | – | SIRP5 (antibody, V domains shown) VH: QVQLQQSAAELARPGASVKMSCKASGYTFTSYTMHWVKQRPGQGLEWIGYINPTIGYTEYNQKFKDKTTLTADKSSSTAYMQLSSLTSEDSAVYYCVRLVITSVLGRAMDYWGQGTSVTVSS VL: QIVLTQSPALMSASPGEKVTMTCSASSSVSYMYWFQQKPRSSPKPWIYLTSNLASGVPARFSGSGSGTSYSLTISSMEAEDAATYYCQQWSGNPFTFGSGTKLEIK
